± gives the standard deviation of the averaged measurements. This is one part of the list. Repeats in this data set agree poorly, so a single value says little.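 Macrophages came from blood monocytes pooled from four healthy donors and grown with M-CSF; these M1-like cells were treated with compounds that had pushed resting macrophages toward the M2-like state in a first-round screen. The Z-score is a t-test comparing cell eccentricity (about 1000 cells per well) with same-row DMSO wells; a compound counts as reprogramming when it passes the M2 cutoff of +6 set by standard cytokine controls (the M1 cutoff is −4).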
Tested on: human monocyte-derived macrophages (polarized)
Experiment: cell shape (eccentricity) Z-score vs DMSO control; macrophage state: M1-polarized (IFNg + TNFa), cytokines removed before treatment; higher = more elongated, M2-like morphology
Details: 24 h

Structure (SMILES) | cell shape (Z-score) (5 µM) | cell shape (Z-score) (10 µM)
O=c1ncccn1[C@@H]1O[C@H](CO)[C@@H](O)[C@H]1O | -7.9 ± 6.2 | -0.215 ± 3.3
COc1ccc([C@H]2CNC(=O)C2)cc1OC1CCCC1 | -0.396 ± 3.5 | -4.31 ± 0.067
C[C@@]1(C(=O)Nc2ccc(F)nc2)CCCN1c1nc(Nc2cc(C3CC3)n[nH]2)c2cccn2n1 | 2.23 ± 8.6 | -8.53 ± 7.7
CC1(C)CC[C@]2(C(=O)O)CC[C@]3(C)C(=CCC4[C@@]5(C)CC[C@@H](O)C(C)(C)C5CC[C@]43C)C2C1 (some centres not stated) | -4.32 ± 6.6 | 1.51 ± 1.7
CCCCCCCCCCC(C)(C)C(=O)Nc1c(OC)cc(OC)cc1OC | -6.45 ± 8.1 | -5.98 ± 9.2
CC(C)n1cnc2c(NCc3ccccc3)nc(NCCO)nc21 | 1.42 ± 8 | -1.66 ± 5.3
COc1cc(C2OC(c3cc(OC)c(OC)c(OC)c3)C(C)C2C)cc(OC)c1OC (configuration not stated) | -7.48 ± 9.8 | -10.5 ± 9.2
C=C[C@@]1(C)CC(=O)[C@]2(O)[C@@]3(C)[C@@H](O)CCC(C)(C)[C@@H]3[C@H](O)[C@H](OC(C)=O)[C@@]2(C)O1 | -2.08 ± 6.7 | -9.07 ± 4.7
CC(C(=O)Nc1cccc(/N=C/c2c(O)ccc3ccccc23)c1)c1ccccc1 (configuration not stated) | -2.06 ± 3.7 | 1.8 ± 6.6
N#CC[C@H](C1CCCC1)n1cc(-c2ncnc3[nH]ccc23)cn1 | 0.241 ± 1.8 | 2.64 ± 0.99
NC(=O)Nc1sc(-c2ccc(F)cc2)cc1C(N)=O | -4.42 ± 2.8 | -5.64 ± 6
COCc1c(C(C)C)nc(C(C)C)c(/C=C/[C@@H](O)C[C@@H](O)CC(=O)O)c1-c1ccc(F)cc1 | 0.161 ± 6 | 5.33 ± 0.19
O=C(/C=C/c1ccccc1)c1ccc(O)cc1 | 3.01 | 9.03
COc1cccc2c1C(=O)c1c(O)c3c(c(O)c1C2=O)C[C@@](O)(C(C)=O)C[C@@H]3O[C@H]1C[C@H](N)[C@H](O)[C@H](C)O1 | -1.45 ± 3.3 | 0.938 ± 2.5
Cc1nn(C)c2nc(NNC(=O)Nc3cc(Cl)nc(Cl)c3)cc(C(C)C)c12 | 5.29 | 7.25
Cc1cc(N2CCOCC2)cc2[nH]c(-c3c(NC[C@@H](O)c4cccc(Cl)c4)cc[nH]c3=O)nc12 | -2.56 ± 15 | -13.4 ± 0.78
Cn1cnc(-c2cc3nccc(Oc4ccc(NC(=S)NC(=O)Cc5ccccc5)cc4F)c3s2)c1 | 4.71 ± 7.1 | 7.36 ± 0.56
COc1cc2ncn(-c3cc(OCc4ccccc4C(F)(F)F)c(C(N)=O)s3)c2cc1OC | 6.31 ± 3.1 | 11.5 ± 6.9
Oc1cccc(O)c1 | 2.84 ± 5.3 | 1.7 ± 3.4
COc1cc(-c2ccc(=O)[nH]n2)ccc1OC(F)F | 3.52 ± 10 | -0.168 ± 7.4
O=C(NCCN1CCCCC1)c1ccc(I)cc1 | 0.9 ± 1.9 | 3.13 ± 0.052

Structure (SMILES) | cell shape (Z-score) (5 µM) | cell shape (Z-score) (10 µM)
CC(C)CNc1ccnc(NCc2csc(-c3ccccc3)n2)n1 | 1.68 ± 6.4 | -2.84 ± 2.9
COc1cccc2c1C(=O)c1c(O)c3c(c(O)c1C2=O)C[C@@](O)(C(=O)CO)C[C@@H]3O[C@H]1C[C@H](N)[C@H](O)[C@H](C)O1 | 7.96 | 7.68
CC1(CCOC2OC(CO)C(O)C(O)C2O)CCC2C(=CCC3C(C)(C(=O)O)CCCC23C)C1 (configuration not stated) | -0.103 ± 3.3 | 3.5 ± 4.7
Cc1c(C(=O)Nc2ccc(N3C[C@@H](C)O[C@@H](C)C3)nc2)cccc1-c1ccc(OC(F)(F)F)cc1 | 3.56 | 7.08
CC(N)C(=O)OC(C)(C)Cc1ccc(Cl)cc1 (configuration not stated) | -3.12 ± 3.4 | 3.67 ± 12
O=c1cc(-c2cccc3c2Sc2ccccc2S3)oc(N2CCOCC2)c1 | 6.18 ± 8.9 | 4.41 ± 11
O=C(CCc1ccc(O)cc1)c1c(O)cc(O)cc1O | 4.34 ± 6.5 | -0.741 ± 5
CCC[C@H](N[C@@H](C)C(=O)N1[C@H](C(=O)O)C[C@@H]2CCCC[C@@H]21)C(=O)OCC | -1.36 ± 3.3 | 0.115 ± 4.6
CC1(C)CCC(C)(C)c2cc(C(=O)Nc3ccc(C(=O)O)cc3)ccc21 | 0.101 ± 7.3 | -1.03 ± 6.2
CC(C)(C)OC(=O)Nc1ccc(-c2cc(C(=O)NCCCCCCC(=O)NO)no2)cc1 | 0.289 ± 0.49 | -1.64 ± 2.6
COc1cc2c(Oc3ccc4[nH]c(C)cc4c3F)ncnc2cc1OCCCN1CCCC1 | -4.25 ± 6.9 | -5.03 ± 6
CC[C@]12CCCN3CCc4c(n(c5ccccc45)[C@@](O)(C(=O)OC)C1)[C@@H]32 | 0.649 ± 3.7 | -0.729 ± 3.2
C=C(c1ccc(C(=O)O)cc1)c1cc2c(cc1C)C(C)(C)CCC2(C)C | 2.36 ± 0.81 | -0.271 ± 6.9
CC1=CC(=O)CC2C1(C)CCC(C)C2(C)CC/C(C)=C\C(=O)O (configuration not stated) | -6.76 ± 5.6 | 1.83 ± 4.3
CN(C)CCC=C1c2ccccc2COc2ccccc21 | -0.844 ± 5.8 | -1.11 ± 3.1
CCn1c(=O)c2c(nc(/C=C/c3ccc(OC)c(OC)c3)n2C)n(CC)c1=O | 1.76 ± 0.91 | -0.439 ± 0.59
c1cc(-c2cnn3cc(-c4ccc(OCCN5CCCCC5)cc4)cnc23)ccn1 | 1.7 ± 4.5 | 1.06 ± 2.9
C#Cc1cccc(Nc2ncnc3cc(OCCOC)c(OCCOC)cc23)c1 | -0.865 ± 1.9 | -2.64 ± 5.5
Nc1nc2c(ncn2COCCO)c(=O)[nH]1 | -1.44 ± 1.1 | 4.43 ± 8.4
CNC(=O)c1cc(Oc2ccc(NC(=O)Nc3ccc(Cl)c(C(F)(F)F)c3)c(F)c2)ccn1 | 6.1 ± 5.5 | 7.11

Single records (already shown):
CC1(C)CCC(C)(C)c2cc(C(=O)Nc3ccc(C(=O)O)cc3)ccc21 in the list: cell shape (Z-score) (5 µM): 0.101 ± 7.3; cell shape (Z-score) (10 µM): -1.03 ± 6.2
COc1cc2c(Oc3ccc4[nH]c(C)cc4c3F)ncnc2cc1OCCCN1CCCC1 in the list: cell shape (Z-score) (5 µM): -4.25 ± 6.9; cell shape (Z-score) (10 µM): -5.03 ± 6
COc1cccc2c1C(=O)c1c(O)c3c(c(O)c1C2=O)C[C@@](O)(C(=O)CO)C[C@@H]3O[C@H]1C[C@H](N)[C@H](O)[C@H](C)O1 in the list: cell shape (Z-score) (5 µM): 7.96; cell shape (Z-score) (10 µM): 7.68

Source: the supplement of paper PMC7858590
